From patent US5677279A, “Methods and compositions for treating pain with amylin or agonists thereof” (Amylin Pharmaceuticals, Inc., priority 1996, dated 1997)

Test system: acetic acid-induced writhing in mice
Assay: mouse writhing assay (acetic acid-induced writhing)
Assay type: in vivo

CN1CC[C@]23c4c5ccc(O)c4O[C@H]2[C@@H](O)C=C[C@H]3[C@H]1C5 [morphine] was tested, and the “analgesic effect at 0.1 mg/kg” value (morphine 0.1 mg/kg) was “non-analgesic”, the “analgesic effect at 0.3 mg/kg” value (morphine 0.3 mg/kg, 30 minutes prior) was “effective” and the “analgesic effect at 1.0 mg/kg” value (morphine 1.0 mg/kg, 30 minutes prior (P<0.01)) was “effective”. The “analgesic effect at 3.0 mg/kg” value (morphine 3.0 mg/kg, 30 minutes prior (P<0.001)) was “effective” and the “lowest effective analgesic dose” value (morphine intraperitoneal 30 minutes prior to acetic acid (P<0.05)) was 0.3 mg/kg.
